Results reported in US20080288176A1 (priority 2005, published 2008).
Where two headings read alike, the source gives them in different places. For some assays here: At least one read-out could not be matched to a standard name with certainty. For some assays here: For at least one compound, name, drawing or mass did not settle the structure. Some of these results come from one statement about several compounds together.

Tests used:
[1] = Hydrolysis in human intestinal microsomes; assay type: in vitro ADME
Source text: The physiologically based pharmacokinetic/pharmacodynamic model of the present invention contains a series of compartments that describe the time course of a nonsteroidal anti-inflammatory prodrug, its active metabolites and nitric oxide release in intestine, liver, kidneys, blood/plasma and heart after prodrug administration. The time course of the prodrug, its active metabolites and nitric oxide release can be simulated using a series of in vitro and in silico inputs. The stability of each component in the gastrointestinal lumen is estimated using data collected from artificial gastric and intestinal juice. […] Hepatic elimination is estimated using liver microsomes and stability in plasma is calculated using degradation of each component in the media. Plasma protein binding can either be measured using a standardized in vitro method or it can be estimated using an in silico method. […]
The selection of in vitro tests is designed to provide parameters for the above mentioned model. […] Based on these observations, it has become apparent that prior to entering the systemic circulation, it is likely that the NO-NSAID would have been hydrolyzed in the enterocytes and little or no NO-NSAID would have been detected in the blood stream. […]

[2] = Hydrolysis in human liver microsomes; assay type: in vitro ADME
Source text: The time course of the prodrug, its active metabolites and nitric oxide release can be simulated using a series of in vitro and in silico inputs. The stability of each component in the gastrointestinal lumen is estimated using data collected from artificial gastric and intestinal juice. Intestinal metabolism is estimated using intestinal microsomes and absorption rate is estimated using permeability data collected from a cell monolayer such as Caco-2. Hepatic elimination is estimated using liver microsomes and stability in plasma is calculated using degradation of each component in the media. Plasma protein binding can either be measured using a standardized in vitro method or it can be estimated using an in silico method. The distribution of each component in various parts of the body is estimated using an in silico method. […]
Representative in vitro tests or in silico estimates include: (a) pKa estimation or measurement; (b) Log P measurement or in silico estimation; (c) Solubility in various physiological fluids; (d) Permeability. […] It can be measured in vitro or estimated in silico; (h) The rate of NO release; (i) Existing pharmacokinetic and pharmacodynamic data of NSAID or a biocompatible agent; (j) Existing NO release rate of known diazeniumdiolate if applicable; (k) Stability in gastric and intestinal environment; and (l) In silico volume of distribution estimation. […]

[3] = Enzymatic hydrolysis in liver microsomal preparations (LC-MS); assay type: in vitro ADME; conditions: after 90 minutes
Protocol: The sensitivity of the prodrug 3 towards enzymatic hydrolysis was evaluated by LC-MS. Liver and intestinal microsomal preparations were used. […] However, these rates were slower than the enzymatic hydrolysis rates determined for the conversion of 1→4 and 2→5 (complete hydrolysis observed in 10 and 30 minutes respectively in liver microsomal preparations).

[4] = Rat; Fagerholm et al., 2005; cited from earlier work
[5] = Human; Fagerholm et al., 2005; cited from earlier work
[6] = physiological conditions; Keefer, 2005 / Saavedra, 2000; cited from earlier work

Row | SMILES | Half-life of hydrolysis [1] | Half-life of hydrolysis [2] | further results
1 | CC(=O)Oc1ccccc1C(=O)OCON=[N+]([O-])N(C)C [Compound N3-112] | less than one | less than one | –
2 | COc1ccc2cc(C(C)C(=O)OCOC(=O)C(CCC(=O)O)NC(C)=O)ccc2c1 (centres unmarked) [Compound 12] | – | – | Conversion to 13 (cleavage of the second linker) [3]: 40-65%
3 | COc1ccc2cc([C@H](C)C(=O)OCCCCO[N+](=O)[O-])ccc2c1 [AZD 3582] | – | – | intestinal permeability [4]: 30 × 7.0e^−6 cm/s; intestinal permeability [5]: 15 × 6.0e^−6 cm/s
4 | CC(=O)Oc1ccccc1C(=O)OCON=[N+]([O-])N1CCCC1 [Compound N3-108] | less than one | less than one | –
5 | [O-][N+](=NO)N1CCCC1 [PYRRO-NO] | – | – | t1/2 of the released unsubstituted diazeniumdiolate [6]: 3 s
